Some entries share one result that the patent states for a list of compounds.
Test system: Pyricularia oryzae
Assay type: cell-based
Conditions: dose of 20 ppm or 4 ppm

| Structure (SMILES) | efficacy (inhibition of fungal growth) |
| --- | --- |
| C[Si](C)(C)c1c(F)cccc1Oc1cnc2cccnc2c1 [I.116] | at least 90% |
| Cc1nc2c(F)c(F)ccc2cc1Oc1cccc(F)c1[Si](C)(C)C [I.027] | at least 90% |
| C[Si](C)(C)c1cc(F)ccc1Oc1cnc2c(Cl)cccc2c1 [I.019] | at least 90% |
